Among the data in patent US11944689B2 (priority 2016, dated 2024) are conjugation yield values, retold here.

This series can be described thus: general procedure: solution-phase peptide synthesis; HATU/DIPEA. The following applies: conjugation step.

Ph-nBu-mAze-Val-Cit-PABC-MMA displayed a conjugation yield of 17%.
